In publication PMC3386982 one finds binding data, which are given here for 1 substance.

Sequences of proteins named here, by UniProt entry; tags and fusion partners are left off. Residues count along the entry.
UniProt P08631, residues 144-241: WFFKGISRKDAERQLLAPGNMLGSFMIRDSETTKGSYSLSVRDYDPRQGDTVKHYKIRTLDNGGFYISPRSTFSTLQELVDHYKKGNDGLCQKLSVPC
UniProt P40198, residues 35-252: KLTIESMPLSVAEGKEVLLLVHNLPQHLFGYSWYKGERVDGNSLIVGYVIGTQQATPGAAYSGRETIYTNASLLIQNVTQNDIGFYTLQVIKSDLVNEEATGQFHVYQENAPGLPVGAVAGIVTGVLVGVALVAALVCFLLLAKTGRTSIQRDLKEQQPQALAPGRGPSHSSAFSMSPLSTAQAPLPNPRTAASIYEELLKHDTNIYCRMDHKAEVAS

The target of this experiment is GST-tagged SH2 domain of Hck (UniProt P08631). Put plainly: pull-down; GST or GST-tagged SH2 domains immobilized on glutathione-sepharose beads; lysates of 293 cells transfected with tagged CEACAM together with or without v-Src; precipitates analysed by Western blotting; only the target purified. Background: A western blot detects proteins with antibodies after separation by electrophoresis.

These are yes or no findings as the source states them, for the method shown. In cells and extracts the contact can be indirect. Some entries that bind do so weakly or less than the wild type.

For the substance “GFP-tagged CEACAM3, tyrosine phosphorylated (co-expressed with v-Src) (from UniProt P40198 35-252) (receptor)”, the binding result is recorded as “binds”.
